Source: PubChem BioAssay AID1159578 (Peter MacCallum Cancer Centre, 2015)
This is a random part of about 18,000 reagents tested. Over the whole deposit, about 1,030 (5.7%) got an active call. 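Inactive calls also include pools with fewer than 3300 nuclei, whose migration was not assessed.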 The raw values are shown without normalisation. Unmarked entries are inactive. Further read-outs or replicates are left out here.

Aim: 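Genome-wide hunt for genes controlling movement of lymphatic endothelial cells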 (primary screen)
Cell system: human lymphatic endothelial cells
Knock-down reagent: siRNA pool against human genes, 40 nM
Duration: 48 h after transfection
Measurement: 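High-content imaging of dye-stained cells in a scratch assay measures filled wound area and nuclei per well; duplicate means given as ratio to mock and robust z-score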
Reading the numbers: migration robust z-score: higher = faster migration into the scratch; nuclei per well: higher = more cells in the well
Rule for the call: 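Migration changed when robust z exceeds 2 or falls below -2 and mean nuclei number is at least 3300; otherwise not called changed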
Calls: active = migration changed; inactive = no migration change, or too few cells

Silencing of OR10H2 came out at: migration robust z-score 0.12; nuclei per well, duplicate mean 5160.
Against HSD11B1, the entry reads migration robust z-score 0.29; nuclei per well, duplicate mean 6024.
Against MYH1, the entry reads migration robust z-score 0.93; nuclei per well, duplicate mean 6326.
After knock-down of RELCH, the record shows migration robust z-score -2.16; nuclei per well, duplicate mean 1730.
Against DLG5, the values are migration robust z-score -1.38; nuclei per well, duplicate mean 5488.
With knock-down of ANXA2R the results were migration robust z-score 0.1; nuclei per well, duplicate mean 6414.
Knock-down of GTF3A came out at: migration robust z-score 0.42; nuclei per well, duplicate mean 4693.
NPC2 scored migration robust z-score 0.83; nuclei per well, duplicate mean 5816.
Against ZNF257 the deposit lists migration robust z-score 0.57; nuclei per well, duplicate mean 6375.
Against KLHL40, the values are migration robust z-score 0.36; nuclei per well, duplicate mean 5520.
For LGALS4, the values are migration robust z-score -1.5; nuclei per well, duplicate mean 5769.
For CRY1, the entry reads migration robust z-score 0.88; nuclei per well, duplicate mean 5616.
